PubChem BioAssay AID1259254 | NCATS | 2017
Test: 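Gene knock-downs that lead to re-replication, shown by excess G2 DNA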 (primary screen). System: human HCT116 colorectal cancer cells. Reagent: single siRNA against human genes. Timing: 3 days. Read-out: 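Nuclei stained with Hoechst and imaged; cell-cycle phase assigned by DNA content; G2 share scaled per plate, non-targeting siRNA 0%, GMNN siRNA 100%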. Reading the numbers: G2 robust z-score and G2 cells, % of GMNN control: higher = more G2 cells, more excess DNA replication; raw share of cells in G2: higher = larger share of cells with G2 DNA content. Active means: 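An siRNA counts as active if its G2 robust z-score lies at least 5 MADs above the screen median; here such calls match roughly 38% of GMNN control or more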.
Shown is one part, drawn at random, of about 59,000 reagents. About 1,550 of all reagents (2.6%) count as active. 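G2 share is only a proxy for re-replication; each gene was hit by three separate siRNAs, and active genes were retested.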 Raw values are not corrected between plates. The record does not give: the amount of reagent.

gene knocked down,PubChem SID,G2 robust z-score,"G2 cells, % of GMNN control",raw share of cells in G2 (%),outcome
KRTAP13-1,SID160757747,1.71,15,9.83,inactive
KRTAP13-1,SID160757748,2.31,19.2,9.19,inactive
KRTAP13-1,SID160757750,-0.379,0.3,2.69,inactive
FAM204A,SID160747217,0.724,8.06,8.09,inactive
FAM204A,SID160747218,1.74,15.2,11.4,inactive
FAM204A,SID160747219,0.109,3.73,3.68,inactive
LEMD1-DT,SID160763384,0.73,8.1,6.6,inactive
LEMD1-DT,SID160763385,-0.521,-0.695,2.77,inactive
LEMD1-DT,SID160763386,0.915,9.41,6.13,inactive
MSTN,SID160770250,1.19,11.4,9.36,inactive
MSTN,SID160770258,-0.964,-3.81,3.81,inactive
MSTN,SID160770268,2.27,18.9,10.4,inactive
MAML2,SID160752251,-0.627,-1.44,3.63,inactive
MAML2,SID160752252,-1.38,-6.74,1.46,inactive
MAML2,SID160752253,-0.156,1.87,2.97,inactive
NFATC4,SID160777996,-0.254,1.18,3.93,inactive
NFATC4,SID160777997,-0.843,-2.97,3.46,inactive
NFATC4,SID160777998,-0.0455,2.65,4.07,inactive

3 entries already listed, arranged by “raw share of cells in G2 (%)”, low to high:
gene knocked down,PubChem SID,G2 robust z-score,"G2 cells, % of GMNN control",raw share of cells in G2 (%),outcome
FAM204A,SID160747219,0.109,3.73,3.68,inactive
LEMD1-DT,SID160763384,0.73,8.1,6.6,inactive
FAM204A,SID160747218,1.74,15.2,11.4,inactive

The listing continues:
gene knocked down,PubChem SID,G2 robust z-score,"G2 cells, % of GMNN control",raw share of cells in G2 (%),outcome
SLC24A3,SID160745967,1.98,16.9,12.6,inactive
SLC24A3,SID160745968,-0.347,0.524,4.53,inactive
SLC24A3,SID160745970,0.0229,3.13,5.36,inactive
ZNF174,SID160719223,-0.89,-3.29,2.43,inactive
ZNF174,SID160719224,-0.198,1.58,6.69,inactive
ZNF174,SID160724112,0.171,4.17,5.09,inactive
MS4A14,SID160735111,-0.795,-2.62,1.61,inactive
MS4A14,SID160752597,0.936,9.55,7.29,inactive
MS4A14,SID160752598,-0.358,0.449,3.59,inactive
DEMA1,SID160764304,0.807,8.64,6.96,inactive
DEMA1,SID160764305,0.238,4.64,5.29,inactive
DEMA1,SID160764306,0.173,4.18,5.87,inactive
SSX2,SID160717411,-0.226,1.38,6.15,inactive
SSX2,SID160717412,3.44,27.2,13.9,inactive
SSX2,SID160717413,-1.06,-4.49,2.47,inactive
GPR50,SID160721809,-0.701,-1.96,5.14,inactive
GPR50,SID160721810,-0.794,-2.62,3.6,inactive
GPR50,SID160721811,0.394,5.74,5.03,inactive
SRP72,SID160717350,0.739,8.17,8.75,inactive
SRP72,SID160717351,-0.521,-0.7,3.62,inactive
SRP72,SID160717352,1.82,15.8,8.92,inactive
SLC16A4,SID160721520,0.718,8.02,7.58,inactive
SLC16A4,SID160721521,4.89,37.4,18.4,inactive
SLC16A4,SID160732138,-0.383,0.272,4.66,inactive
H1-7,SID160725099,0.529,6.69,6.19,inactive
H1-7,SID160725100,-0.799,-2.66,3.12,inactive
H1-7,SID160764560,-1.32,-6.3,1.82,inactive
B3GAT3,SID160737793,3.28,26,18,inactive
B3GAT3,SID160737794,0.663,7.63,6.72,inactive
B3GAT3,SID160737795,10.2,74.9,28.5,active
